According to PubChem BioAssay AID504842 (National Center for Advancing Translational Sciences (NCATS), 2011):
Out of some 330,000 compounds screened, about 100 (0.03%) were called active. The shares of active, inactive and inconclusive entries below differ from those in the screen. Calls come from the whole dose curve; as a rule, active = well fitted inhibition curve with a large enough effect; inconclusive = small, poorly fitted or top-dose-only effect; inactive = flat fitted curve, though single readings scatter. Where the call is inconclusive, the potency comes from a doubtful curve fit.

tested on: Chaperonin Mm-Cpn (Methanococcus maripaludis); assay: Inhibitors of TCP-1 ring complex (TRiC) of Methanococcus maripaludis (MmCpn): qHTS; conditions: purified Mm-Cpn ATPase, ADP Transcreener TR-FRET; series mostly up to 76.9 µM; note: nearly all actives have a fitted effect of over 80% in size;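 for potency: enzyme at 25 nM with ATP substrate at 10 µM during the reaction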
Procedure, shortened: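 Reaction buffer contained 30 mM Tris pH 7.4, 100 mM KCl, 5 mM MgCl2 and 1 mM DTT. Mm-CPN (25 nM final) hydrolysed 10 uM ATP over 30 min at 37°C; ADP was read by HTRF.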
Potency is the fitted concentration of half-maximal effect.

Potency, inactive:
CC(NC(=O)Cc1ccc(F)cc1)c1ccccc1 (configuration not stated), Cc1ccc(N=c2c([N+](=O)[O-])nn(-c3ccc(Cl)cc3)n2O)cc1C, COc1ccccc1NS(=O)(=O)c1cc(C)ccc1C, COCCCn1c(C)cc(C(=O)COC(=O)C23CC4CC(CC(O)(C4)C2)C3)c1C, O=C(NCc1cccs1)c1cc(C2CC2)on1, Cc1c(-c2n[nH]c(=S)n2-c2ccc(C(F)(F)F)cc2)nnn1-c1ccccc1, Cc1ccc(SCCOCCN2CCc3ccccc3C2)cc1, CC(C)c1nc2sc3c(NCc4ccco4)ncnc3c2c2c1COC(C)(C)C2, CC(C)c1nc2oc3c(NCc4cccnc4)ncnc3c2c2c1CCC2, N#CCSc1nc2[nH]ncc2c(=O)n1-c1ccccc1Br, CC1CCCC(C)N1C(=S)NCc1ccco1 (configuration not stated), Cc1cccc2[nH]c3c(=O)n(CCN4CCNCC4)cnc3c12, O=C(COC(=O)c1ccc(Cl)nc1)c1ccc2c(c1)OCCO2, CCCn1nnnc1SCC(=O)NNC(=O)C1CCCCC1, CCN(CCN(C)C)C(=O)c1ccc2c(c1NCCO)C(=O)c1ccccc1C2=O, COc1ccc2c(C(=O)NCCCCO)c(-c3ccc(S(C)(=O)=O)cc3)sc2c1, CCC(=O)Nc1nc2ccccc2n1CCN1CCOCC1, COc1ccc(C2C=C(c3ccc(F)cc3)NC(=S)N2)cc1OC (configuration not stated), COc1ccccc1NC(=O)CSc1ccc(-c2ccco2)nn1, CN(O)/C=N/C(=S)Nc1ccc(Cl)cc1Cl, COc1ccc(CC(=O)N(C)CC(=O)Nc2ccccc2SC)cc1, O=c1cc(-c2ccccc2)oc2ccc(Br)cc12, CC1=NN2C(=N)/C(=C\c3cc(C)n(-c4ccccc4)c3C)C(=O)N=C2S1, COc1ccc(NC(=S)N2CCC(c3ccccc3)C2)cc1 (configuration not stated), CCN(CC)CCCNC(=O)c1nn(-c2ccc(OC)cc2OC)c(=O)c2ccccc12, CCS(=O)(=O)NCC(c1ccco1)N1CCN(c2ccc(F)cc2)CC1 (configuration not stated), C/C(=N\NC(=O)c1cccnc1)c1ccc(OC2OCCOC2Oc2ccc(/C(C)=N/NC(=O)c3cccnc3)cc2)cc1 (configuration not stated)

Potency, inconclusive:
CCOC(=O)c1sc(NC(=O)c2ccc3ncsc3c2)nc1C 112 µM [inhibitor, partial curve], COc1cccc(OCCN2CCN(c3ncnc4c3cnn4-c3ccccc3)CC2)c1 794 µM [inhibitor, partial curve, poor fit], O=C(CN1C(=O)CCS(=O)(=O)c2ccccc21)Nc1cccc(Cl)c1 22.4 µM [inhibitor, single point], CCc1ccc(NC(=O)CSc2nccn(-c3ccc4c(c3)OCCO4)c2=O)cc1 56.2 µM [inhibitor, partial curve, poor fit], O=S(=O)(/N=C(/Nc1ccccn1)c1ccc(Cl)cc1)c1ccc(Cl)cc1 20 µM [inhibitor, single point], Cn1cncc1COC(=O)c1ccc(Cl)cc1 20 µM [inhibitor, single point], CCOC(=O)C1=C(N)n2c(s/c(=C\c3cccs3)c2=O)=C(C(=O)OCC)C1c1cccs1 (configuration not stated) 22.4 µM [inhibitor, single point], COCCNC(=S)N/N=C/c1ccc(OCc2ccc(C(=O)OC)cc2)c(OC)c1 22.4 µM [inhibitor, single point], COc1ccc(C)cc1C1=CC(=O)C[C@H](c2ccc(F)cc2)C1 89.1 µM [inhibitor, single point], CCN(C(=O)Cn1c([N+](=O)[O-])cnc1C)c1ccccc1 11.2 µM [inhibitor, single point], CCN(C(=O)Cc1c(C(=O)O)n(C)c2ccccc12)c1ccc(F)cc1 50.1 µM [inhibitor, single point], CCN(CC)c1ccc(NC(=O)c2ccccc2F)cc1S(=O)(=O)Nc1ccccc1OC 89.1 µM [inhibitor, single point], Cc1onc(-c2c(Cl)cccc2Cl)c1-c1nnc(-c2ccc(Cl)cc2)o1 100 µM [inhibitor, single point], CCCOC(=O)CSc1nc(N)c(C#N)c(CC)c1C#N 100 µM [inhibitor, partial curve, poor fit], CCN(CC)c1ccc(-c2nn3c(-c4ccccc4OC)nnc3s2)cc1 50.1 µM [inhibitor, single point], CN(C)NC(=S)NC(=O)C12CC3CC(CC(C3)C1)C2 100 µM [inhibitor, single point], C(=C\c1ccccn1)/c1ccncc1 14.1 µM [inhibitor, single point], Cc1cc2oc(=O)cc(CN3CCCCC3C)c2cc1C(C)C (configuration not stated) 100 µM [inhibitor, partial curve, poor fit], O=C(COc1ccccc1/C=C\c1[nH]c(=O)[nH]c(=O)c1[N+](=O)[O-])Nc1ccccc1 126 µM [inhibitor, partial curve, poor fit], CCNC(=O)c1cc(Cl)ccc1OC 100 µM [inhibitor, partial curve, poor fit], O=c1c2ccccc2nc(-c2cccs2)n1-c1ccc2ccccc2c1 11.2 µM [inhibitor, single point], COC(=O)Cn1c(O)c(N=NC(=O)CNC(=O)c2ccncc2)c2ccccc21 56.2 µM [inhibitor, single point], COc1ccc(N2CCN(C3CCCN(Cc4ccc(F)c(F)c4)C3)CC2)cc1 (configuration not stated) 15.8 µM [inhibitor, single point], O=[n+]1c2c(n([O-])c3cc(F)c(N4CCCC4)cc31)CCCC2 22.4 µM [inhibitor, single point], COc1ccccc1/C=C/C=N/NC(=O)c1ccccn1 28.2 µM [inhibitor, single point], CCOc1cc(/C=C2\C(=N)N3N=C(S(C)(=O)=O)SC3=NC2=O)ccc1OCCOc1cccc(OC)c1 63.1 µM [inhibitor, single point], Cc1ccc(C(=O)CSc2nnnn2C(C)C)c(C)c1 39.8 µM [inhibitor, single point], COC(=O)c1c(C)oc2c1cc(NS(=O)(=O)c1ccc(C(=O)O)cc1)c1ccccc12 224 µM [inhibitor, partial curve, poor fit], Cc1cc2c(=O)[nH]c(Cc3ccccc3)nc2s1 70.8 µM [inhibitor, single point], Cn1nc(C(F)(F)F)c(-c2ccccc2)c1NC(=O)CSCC(=O)O 100 µM [inhibitor, partial curve, poor fit], Cc1ccc(NC(=O)CN(C)CCOc2ccccc2)c([N+](=O)[O-])c1 100 µM [inhibitor, single point], CCC(C#CCN1CCCCC1)(CC)OCCC#N 89.1 µM [inhibitor, single point], COc1cc(Br)c(/C=C/c2ccc3cccc(O)c3n2)cc1OC 17.8 µM [inhibitor, single point], Cc1nc2ccc(S(=O)(=O)N(C)CC(=O)NCc3ccc4c(c3)OCO4)cc2s1 50.1 µM [inhibitor, single point], C=CCSc1nnc(-c2cc(C(C)(C)C)nn2Cc2ccc(F)cc2)n1C 20 µM [inhibitor, single point], COC(=O)C1=C(C)NC(=S)NC1c1ccc(-c2cc(Cl)ccc2Cl)o1 (configuration not stated) 89.1 µM [inhibitor, single point], CN(CCOc1ccccc1)Cc1nc2cc(Cl)ccc2c(=O)[nH]1 89.1 µM [inhibitor, single point], Nc1nc2ccccc2cc1S(=O)(=O)c1ccccc1 7.08 µM [inhibitor, single point], CCN(CC(=O)Nc1ccccc1C(F)(F)F)C(=O)CSCc1c(C)noc1C 10 µM [inhibitor, single point], O=C(CN1CCOCC1)Nc1ccc(Br)cc1 10 µM [inhibitor, single point], O=C1CSC(c2cn(-c3ccccc3)nc2-c2cccs2)N1Cc1ccccc1 (configuration not stated) 100 µM [inhibitor, single point], COc1cc(OC)cc(-c2nc3nc(C)c(CCC(=O)NCC(OC)OC)c(C)n3n2)c1 79.4 µM [inhibitor, single point], CC(C)C(C)(C#N)NC(=O)CSc1nc2scc(-c3ccc(F)cc3)c2c(=O)n1Cc1ccccc1 (configuration not stated) 89.1 µM [inhibitor, partial curve, poor fit], O=C(Cn1cc([N+](=O)[O-])cn1)Nc1cccnc1 22.4 µM [inhibitor, single point], O=C(Cc1ccc(S(=O)(=O)N2CCOCC2)s1)N1CCN(S(=O)(=O)c2ccc(Cl)cc2)CC1 158 µM [inhibitor, partial curve, poor fit]
